# ± gives the standard deviation of the averaged measurements. This is a selection; strong and weak results do not stand in their true shares.
# Tests used:
# Assay in all cases: NP40-soluble protein abundance relative to vehicle (solubility fold change) (ratio); higher = more soluble protein in presence of ATP
# [1] = target: T1, RBM12 (UniProt Q9NTZ6)
# T1 sequence (whole entry): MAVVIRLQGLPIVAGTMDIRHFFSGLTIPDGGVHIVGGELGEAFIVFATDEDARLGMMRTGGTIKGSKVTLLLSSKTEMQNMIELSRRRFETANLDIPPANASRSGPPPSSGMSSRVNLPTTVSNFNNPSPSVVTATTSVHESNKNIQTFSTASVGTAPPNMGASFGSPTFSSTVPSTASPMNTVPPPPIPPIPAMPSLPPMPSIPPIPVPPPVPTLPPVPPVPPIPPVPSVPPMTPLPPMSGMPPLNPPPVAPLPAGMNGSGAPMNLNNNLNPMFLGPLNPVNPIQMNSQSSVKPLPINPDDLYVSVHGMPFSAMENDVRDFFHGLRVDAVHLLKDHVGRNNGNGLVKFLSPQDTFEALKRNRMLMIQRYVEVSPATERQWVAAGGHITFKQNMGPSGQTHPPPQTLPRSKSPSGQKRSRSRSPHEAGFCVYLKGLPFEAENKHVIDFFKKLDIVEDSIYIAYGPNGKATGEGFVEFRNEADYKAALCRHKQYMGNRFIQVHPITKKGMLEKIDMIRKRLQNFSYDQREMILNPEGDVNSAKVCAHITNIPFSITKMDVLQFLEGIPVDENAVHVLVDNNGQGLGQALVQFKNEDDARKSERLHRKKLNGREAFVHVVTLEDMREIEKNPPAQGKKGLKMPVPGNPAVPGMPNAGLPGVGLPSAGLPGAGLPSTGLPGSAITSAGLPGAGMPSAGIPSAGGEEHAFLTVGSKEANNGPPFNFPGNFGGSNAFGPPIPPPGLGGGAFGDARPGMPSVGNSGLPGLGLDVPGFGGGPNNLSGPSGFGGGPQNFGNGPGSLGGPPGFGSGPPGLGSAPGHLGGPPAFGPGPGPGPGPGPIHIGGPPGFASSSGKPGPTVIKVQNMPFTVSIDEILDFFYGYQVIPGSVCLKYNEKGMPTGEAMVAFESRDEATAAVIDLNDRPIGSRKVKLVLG
# How it was run: (§1)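 Jurkat crude lysate (Dounce-homogenised) was treated with eight concentrations from 0.1 to 10 mM for 10 min at room temperature, then 3 min at 37 °C. It was solubilised with 0.8% NP40 and benzonase (60 min, 4 °C) and ultracentrifuged, and the supernatant was TMT-labelled for LC-MS/MS. Intensities were vsn-normalised, and the value is the fold change against the NP40-processed vehicle per replicate, from three independent experiments.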
# [2] = target: T2, SACM1L (UniProt Q9NTJ5)
# T2 sequence (whole entry): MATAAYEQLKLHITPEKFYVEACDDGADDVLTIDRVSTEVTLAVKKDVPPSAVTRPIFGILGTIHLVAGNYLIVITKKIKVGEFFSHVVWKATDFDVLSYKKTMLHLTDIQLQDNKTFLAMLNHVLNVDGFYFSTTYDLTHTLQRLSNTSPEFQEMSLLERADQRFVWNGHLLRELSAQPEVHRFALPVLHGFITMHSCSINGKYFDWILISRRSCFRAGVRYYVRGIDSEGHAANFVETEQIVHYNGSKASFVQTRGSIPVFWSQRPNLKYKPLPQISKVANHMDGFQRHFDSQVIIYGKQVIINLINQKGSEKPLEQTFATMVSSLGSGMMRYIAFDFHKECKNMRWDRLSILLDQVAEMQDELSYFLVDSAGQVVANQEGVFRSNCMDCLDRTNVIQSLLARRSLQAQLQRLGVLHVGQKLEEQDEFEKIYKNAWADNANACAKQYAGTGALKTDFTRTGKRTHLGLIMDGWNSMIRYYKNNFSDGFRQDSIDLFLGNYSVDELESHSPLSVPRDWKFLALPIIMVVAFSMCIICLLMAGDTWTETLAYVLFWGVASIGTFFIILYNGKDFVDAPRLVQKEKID
# How it was run: as §1
# [3] = target: T3, TMEM9 (UniProt Q9P0T7)
# T3 sequence (whole entry): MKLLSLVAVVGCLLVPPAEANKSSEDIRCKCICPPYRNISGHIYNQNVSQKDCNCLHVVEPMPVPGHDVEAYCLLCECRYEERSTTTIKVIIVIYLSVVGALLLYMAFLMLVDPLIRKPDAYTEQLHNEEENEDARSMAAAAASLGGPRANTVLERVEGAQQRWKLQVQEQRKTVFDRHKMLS
# How it was run: as §1
# [4] = target: T4, UniProt Q9NPH3 and related entries
# T4 sequence (whole entry): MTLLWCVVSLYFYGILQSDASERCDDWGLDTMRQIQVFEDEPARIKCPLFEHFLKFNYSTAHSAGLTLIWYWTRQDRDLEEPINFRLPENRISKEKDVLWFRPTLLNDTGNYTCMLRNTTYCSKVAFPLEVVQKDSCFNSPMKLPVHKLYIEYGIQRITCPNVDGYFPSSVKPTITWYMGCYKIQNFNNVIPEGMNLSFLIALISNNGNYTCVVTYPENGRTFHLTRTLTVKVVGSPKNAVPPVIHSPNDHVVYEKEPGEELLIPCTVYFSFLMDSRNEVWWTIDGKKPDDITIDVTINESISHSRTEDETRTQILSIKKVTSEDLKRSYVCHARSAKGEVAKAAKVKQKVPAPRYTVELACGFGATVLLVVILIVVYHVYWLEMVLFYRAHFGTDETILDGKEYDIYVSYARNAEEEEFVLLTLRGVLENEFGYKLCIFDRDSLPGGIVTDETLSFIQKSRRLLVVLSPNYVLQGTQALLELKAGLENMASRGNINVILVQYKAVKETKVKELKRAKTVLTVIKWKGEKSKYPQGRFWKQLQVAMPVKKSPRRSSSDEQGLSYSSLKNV
# How it was run: as §1
# [5] = target: T5, UniProt Q9NPI1 and related entries
# T5 sequence (whole entry): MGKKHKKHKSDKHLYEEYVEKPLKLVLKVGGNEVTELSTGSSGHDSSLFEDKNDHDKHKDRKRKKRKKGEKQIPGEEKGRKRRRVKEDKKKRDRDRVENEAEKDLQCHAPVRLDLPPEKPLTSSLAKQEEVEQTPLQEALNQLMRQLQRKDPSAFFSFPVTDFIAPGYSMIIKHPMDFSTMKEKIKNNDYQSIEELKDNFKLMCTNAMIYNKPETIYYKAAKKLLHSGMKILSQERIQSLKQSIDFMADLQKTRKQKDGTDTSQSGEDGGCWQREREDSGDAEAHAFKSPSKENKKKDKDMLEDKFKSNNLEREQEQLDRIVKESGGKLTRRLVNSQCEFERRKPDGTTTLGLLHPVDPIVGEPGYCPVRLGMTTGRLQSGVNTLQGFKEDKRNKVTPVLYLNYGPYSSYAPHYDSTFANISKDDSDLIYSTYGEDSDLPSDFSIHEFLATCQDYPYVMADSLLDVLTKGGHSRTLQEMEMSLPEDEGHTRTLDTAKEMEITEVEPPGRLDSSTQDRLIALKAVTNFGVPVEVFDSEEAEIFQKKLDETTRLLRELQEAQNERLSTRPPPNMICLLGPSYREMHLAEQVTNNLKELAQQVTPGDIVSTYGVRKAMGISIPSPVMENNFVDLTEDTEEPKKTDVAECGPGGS
# How it was run: as §1
# [6] = target: T6, UniProt Q9NPJ3
# T6 sequence (whole entry): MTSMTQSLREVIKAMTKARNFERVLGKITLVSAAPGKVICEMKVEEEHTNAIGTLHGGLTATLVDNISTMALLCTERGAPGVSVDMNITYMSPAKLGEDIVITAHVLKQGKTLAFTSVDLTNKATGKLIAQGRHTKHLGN
# How it was run: as §1
structure (smiles),measurement,setting,value
Nc1ncnc2c1ncn2[C@@H]1O[C@H](COP(=O)(O)OP(=O)(O)OP(=O)(O)O)[C@@H](O)[C@H]1O [adenosine triphosphate],NP40-soluble protein abundance,[1]; concentration: 2mM,0.954 ± 0.041
same,NP40-soluble protein abundance,[1]; concentration: 4mM,0.934 ± 0.045
same,NP40-soluble protein abundance,[1]; concentration: 6mM,0.942 ± 0.066
same,NP40-soluble protein abundance,[1]; concentration: 8mM,0.92 ± 0.022
same,NP40-soluble protein abundance,[1]; concentration: 10mM,0.925 ± 0.017
same,NP40-soluble protein abundance,[2]; concentration: 1mM,1.05 ± 0.068
same,NP40-soluble protein abundance,[2]; concentration: 2mM,1 ± 0.061
same,NP40-soluble protein abundance,[2]; concentration: 4mM,0.982 ± 0.052
same,NP40-soluble protein abundance,[2]; concentration: 6mM,0.977 ± 0.09
same,NP40-soluble protein abundance,[2]; concentration: 8mM,0.988 ± 0.046
same,NP40-soluble protein abundance,[2]; concentration: 10mM,0.97 ± 0.025
same,NP40-soluble protein abundance,[3]; concentration: 1mM,0.905 ± 0.066
same,NP40-soluble protein abundance,[3]; concentration: 2mM,0.91 ± 0.06
same,NP40-soluble protein abundance,[3]; concentration: 4mM,0.94 ± 0.038
same,NP40-soluble protein abundance,[3]; concentration: 6mM,0.919 ± 0.042
same,NP40-soluble protein abundance,[3]; concentration: 8mM,0.931 ± 0.028
same,NP40-soluble protein abundance,[3]; concentration: 10mM,0.872 ± 0.042
same,NP40-soluble protein abundance,[4]; concentration: 1mM,0.801 ± 0.1
same,NP40-soluble protein abundance,[4]; concentration: 2mM,0.91 ± 0.12
same,NP40-soluble protein abundance,[4]; concentration: 4mM,0.95 ± 0.058
same,NP40-soluble protein abundance,[4]; concentration: 6mM,0.988 ± 0.076
same,NP40-soluble protein abundance,[4]; concentration: 8mM,0.96 ± 0.14
same,NP40-soluble protein abundance,[4]; concentration: 10mM,0.955 ± 0.14
same,NP40-soluble protein abundance,[5]; concentration: 1mM,1.16 ± 0.047
same,NP40-soluble protein abundance,[5]; concentration: 2mM,1.21 ± 0.069
same,NP40-soluble protein abundance,[5]; concentration: 4mM,1.29 ± 0.039
same,NP40-soluble protein abundance,[5]; concentration: 6mM,1.37 ± 0.15
same,NP40-soluble protein abundance,[5]; concentration: 8mM,1.38 ± 0.05
same,NP40-soluble protein abundance,[5]; concentration: 10mM,1.43 ± 0.049
same,NP40-soluble protein abundance,[6]; concentration: 1mM,0.949 ± 0.064
same,NP40-soluble protein abundance,[6]; concentration: 2mM,0.95 ± 0.049
same,NP40-soluble protein abundance,[6]; concentration: 4mM,0.892 ± 0.038

# As a working copy, some entries already given:
structure (smiles),measurement,setting,value
Nc1ncnc2c1ncn2[C@@H]1O[C@H](COP(=O)(O)OP(=O)(O)OP(=O)(O)O)[C@@H](O)[C@H]1O [adenosine triphosphate],NP40-soluble protein abundance,[5]; concentration: 10mM,1.43 ± 0.049
same,NP40-soluble protein abundance,[6]; concentration: 1mM,0.949 ± 0.064

# Source: the supplement of paper PMC6411743
